Measurements reported in patent publication US5753625A, “Treatment for inhibiting the progression of autoimmune disease” (SangStat Medical Corporation, priority 1995, dated 1998).
Not every detail of the peptide structures is certain; ends, links or a residue may be inferred. Some compounds share one wording; it may come from a single statement. Where a SMILES comes first, the peptide text is derived from it.

How the values were obtained:
female NOD mice = test: Experiment I: delay of onset of IDDM in NOD mice, peptides given intravenously; assay type: in vivo, mouse; settings: for effect on onset/incidence of IDDM versus untreated controls: 1 mg peptide i.v. once a week for 8 weeks, diabetic = blood glucose >250 mg/dl, 70% of untreated controls diabetic by 16 weeks of age
NOD mice = test: Experiment II: delay of onset of IDDM in NOD mice, peptides given intraperitoneally; assay type: in vivo, mouse; settings: NOD mice 5 weeks old at start, 0.3 mg i.p. three times per week until development of diabetes

| SMILES | effect on onset/incidence of IDDM versus untreated controls (female NOD mice) | animals that developed diabetes during the treatment period (female NOD mice; 1 mg i.v. once a week for 8 weeks, blood glucose >250 mg/dl) | animals diabetic by week 19, after termination of treatment (female NOD mice; after the end of 8 weeks of 1 mg i.v. weekly, by week 19) | delay of onset of diabetes (NOD mice) |
| --- | --- | --- | --- | --- |
| CC(C)C[C@H](NC(=O)[C@H](CC(N)=O)NC(=O)[C@H](CCCNC(=N)N)NC(=O)[C@H](CC(C)C)NC(=O)[C@H](CO)NC(=O)[C@H](CCC(=O)O)NC(=O)[C@@H](N)CCCNC(=N)N)C(=O)N[C@@H](CCCNC(=N)N)C(=O)NCC(=O)N[C@@H](Cc1ccc(O)cc1)C(=O)O [PEPTIDE 07] (H-RESLRNLRGY-OH) | no statistically significant difference from the controls |  |  |  |
| CC[C@H](C)[C@H](NC(=O)[C@H](CCCNC(=N)N)NC(=O)[C@H](CC(C)C)NC(=O)[C@H](CC(N)=O)NC(=O)[C@H](CCC(=O)O)NC(=O)[C@@H](N)CCCNC(=N)N)C(=O)N[C@@H](C)C(=O)N[C@@H](CC(C)C)C(=O)N[C@@H](CCCNC(=N)N)C(=O)N[C@@H](Cc1ccc(O)cc1)C(=O)O [PEPTIDE 2702] | no statistically significant difference from the controls |  |  |  |
| CC(C)C[C@H](NC(=O)[C@H](CC(N)=O)NC(=O)[C@@H](NC(=O)[C@@H](N)CCCNC(=N)N)C(C)C)C(=O)N[C@@H](CCCNC(=N)N)C(=O)N[C@H](C(=O)N[C@@H](CC(C)C)C(=O)N[C@@H](CCCNC(=N)N)C(=O)N[C@@H](CCCNC(=N)N)C(=O)N[C@@H](Cc1ccc(O)cc1)C(=O)O)[C@@H](C)O [PEPTIDE E] (H-RVNLRTLRRY-OH) | significant delay in the onset of IDDM | 10% | 60% |  |
| CSCC[C@H](NC(=O)[C@@H](N)CCCNC(=N)N)C(=O)N[C@@H](CC(N)=O)C(=O)N[C@@H](CC(C)C)C(=O)N[C@@H](CCC(N)=O)C(=O)N[C@H](C(=O)N[C@@H](CC(C)C)C(=O)N[C@@H](CCCNC(=N)N)C(=O)NCC(=O)N[C@@H](Cc1ccc(O)cc1)C(=O)O)[C@@H](C)O [PEPTIDE G] (H-RMNLQTLRGY-OH) | no statistically significant difference from the controls |  |  |  |
| CC(C)C[C@H](NC(=O)[C@H](C)NC(=O)[C@@H](NC(=O)[C@H](CCCNC(=N)N)NC(=O)[C@H](CC(C)C)NC(=O)[C@H](CC(N)=O)NC(=O)[C@@H](NC(=O)[C@@H](N)CCCNC(=N)N)C(C)C)[C@@H](C)O)C(=O)N[C@@H](CCCNC(=N)N)C(=O)N[C@@H](Cc1ccc(O)cc1)C(=O)O [PEPTIDE K^ka] (H-RVNLRTALRY-OH) |  |  |  | significantly delayed the onset of diabetes |
